The test deals with T1, domain deletion ICAM-R/IgG chimera with ICAM-R domains 3, 4 and 5 (human) (UniProt P32942).
T1 sequence: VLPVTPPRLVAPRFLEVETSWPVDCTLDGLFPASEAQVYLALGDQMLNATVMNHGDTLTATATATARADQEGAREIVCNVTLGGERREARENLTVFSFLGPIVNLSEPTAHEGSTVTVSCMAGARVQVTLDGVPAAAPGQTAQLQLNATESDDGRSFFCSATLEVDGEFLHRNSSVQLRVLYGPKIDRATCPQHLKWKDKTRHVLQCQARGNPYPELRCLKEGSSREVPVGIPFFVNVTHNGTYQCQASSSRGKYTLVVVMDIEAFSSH
Nature of the test: cell adhesion, domain deletion ICAM-R/IgG.

Protein sequences, listed by entry. Tags and fused reporters are not part of them. Lines headed by an entry give the natural chain unless they say otherwise; changes in a name come on top.
UniProt P13612: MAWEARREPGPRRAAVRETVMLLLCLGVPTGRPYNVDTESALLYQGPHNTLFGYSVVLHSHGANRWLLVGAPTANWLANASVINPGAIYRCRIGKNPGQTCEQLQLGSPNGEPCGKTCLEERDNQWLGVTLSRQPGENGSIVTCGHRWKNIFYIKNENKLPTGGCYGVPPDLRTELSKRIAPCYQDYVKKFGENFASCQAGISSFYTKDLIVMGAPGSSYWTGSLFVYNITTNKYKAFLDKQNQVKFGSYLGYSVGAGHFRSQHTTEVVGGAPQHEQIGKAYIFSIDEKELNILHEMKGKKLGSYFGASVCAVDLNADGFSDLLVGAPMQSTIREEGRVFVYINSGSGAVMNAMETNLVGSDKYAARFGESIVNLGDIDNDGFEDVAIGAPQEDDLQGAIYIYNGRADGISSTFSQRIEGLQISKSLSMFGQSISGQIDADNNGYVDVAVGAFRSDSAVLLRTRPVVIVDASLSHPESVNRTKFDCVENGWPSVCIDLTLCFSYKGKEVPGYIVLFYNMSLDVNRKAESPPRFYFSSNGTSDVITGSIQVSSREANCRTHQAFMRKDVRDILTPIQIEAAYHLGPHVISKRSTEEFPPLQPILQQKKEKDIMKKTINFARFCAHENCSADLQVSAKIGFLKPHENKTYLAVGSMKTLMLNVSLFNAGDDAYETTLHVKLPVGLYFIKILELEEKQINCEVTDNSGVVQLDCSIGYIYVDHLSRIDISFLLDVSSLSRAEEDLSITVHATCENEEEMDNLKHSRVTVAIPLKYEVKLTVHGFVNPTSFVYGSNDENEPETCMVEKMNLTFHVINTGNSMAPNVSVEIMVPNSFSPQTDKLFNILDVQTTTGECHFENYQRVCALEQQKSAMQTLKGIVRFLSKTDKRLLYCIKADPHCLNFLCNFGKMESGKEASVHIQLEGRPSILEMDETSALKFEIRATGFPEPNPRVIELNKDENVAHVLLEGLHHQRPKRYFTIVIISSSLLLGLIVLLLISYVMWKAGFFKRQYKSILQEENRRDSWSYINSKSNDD

These are yes or no findings as the source states them, for the method shown. Some entries that bind do so weakly or less than the wild type.

Binding data for 1 substance are collected here from patent US20010029293A1.

On to “VLA-4 (α4/β1) on cells (from UniProt P13612 34-1032; P05556 21-798) (receptor)”, for which the binding entry is on record as “binds”.
